This assay addresses eIF4A (immunoprecipitated for mass spectrometry) (Drosophila) (UniProt Q02748). Briefly: affinity purification with mass spectrometry; eIF4A immunoprecipitations in triplicate from cells in medium with (+aa) or without (-aa) amino acids, co-precipitating proteins identified by mass spectrometry.

Sequences of proteins named here, by UniProt entry; tags and fusion partners are left off.
UniProt Q02748: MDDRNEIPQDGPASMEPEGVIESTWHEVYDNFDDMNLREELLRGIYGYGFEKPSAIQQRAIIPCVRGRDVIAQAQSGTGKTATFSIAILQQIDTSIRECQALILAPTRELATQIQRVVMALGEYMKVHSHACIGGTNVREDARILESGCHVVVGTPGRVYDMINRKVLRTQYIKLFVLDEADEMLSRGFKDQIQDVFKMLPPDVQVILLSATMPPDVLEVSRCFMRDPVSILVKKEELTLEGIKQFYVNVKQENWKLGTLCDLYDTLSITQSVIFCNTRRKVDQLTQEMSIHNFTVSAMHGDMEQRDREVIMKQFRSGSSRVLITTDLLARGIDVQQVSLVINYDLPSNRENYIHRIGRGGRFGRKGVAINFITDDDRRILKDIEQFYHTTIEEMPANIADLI

2 substances from PMC4868951 can be followed below.

No constants are given. Whether binding was seen depends on the method and setting. In cells and extracts the contact can be indirect. These calls come from enrichment with a bait or labelling near it, and not all partners need be listed.

In the case of EF2 (from UniProt P13060 1-844), the binding result was “binds”. For RpS3 (from UniProt Q06559 1-246) the value was “binds”.
